These are yes or no findings as the source states them, for the method shown. Some results given as binding are weak or reduced against the parent protein; the word gives no strength.
molecular target: cynomolgus IL-13 (cynomolgus) (UniProt Q0PW92); test: SPR (Biacore)

By UniProt entry, the sequences of proteins in these tests, tags left out. Where a name states a change or a piece, a line headed by the entry shows the natural chain unless it says otherwise. Chains listed by the source or under a name are the forms on record and can include a tag or linker.
cynomolgus IL-13 (Q0PW92, form named): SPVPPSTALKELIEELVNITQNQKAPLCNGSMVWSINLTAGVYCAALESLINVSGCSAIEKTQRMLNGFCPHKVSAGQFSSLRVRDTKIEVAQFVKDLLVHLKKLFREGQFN

binding	Binder
binds	13C5.5L2E (antibody, V domains shown) VH: EVTLRESGPGLVKPTQTLTLTCTLYGFSLSTSDMGVDWIRQPPGKGLEWLAHIWWDDVKRYNPALKSRLTISKDTSKNQVVLKLTSVDPVDTATYYCARTVSSGYIYYAMDYWGQGTLVTVSS VL: DIQMTQSPSSLSASVGDRVTISCRASQDIRNYLNWYQQKPGKAPKLLIFYTSMKPRGVPSRFSGSGSGTDYTLTISSLQPEDIATYYCQQGNTLPLTFGGGTKVEIK
binds	13C5.5L3F (antibody, V domains shown) VH: EVTLRESGPGLVKPTQTLTLTCTLYGFSLSTSDMGVDWIRQPPGKGLEWLAHIWWDDVKRYNPALKSRLTISKDTSKNQVVLKLTSVDPVDTATYYCARTVSSGYIYYAMDYWGQGTLVTVSS VL: DIQMTQSPSSLSASVGDRVTISCRASQDIRNYLNWYQQKPGKAPKLLIFYTSKLHSGVPSRFSGSGSGTDYTLTISSLQPEDIATYYCQQGLTPPLTFGGGTKVEIK
binds	13C5.5L2EL3F (antibody, V domains shown) VH: EVTLRESGPGLVKPTQTLTLTCTLYGFSLSTSDMGVDWIRQPPGKGLEWLAHIWWDDVKRYNPALKSRLTISKDTSKNQVVLKLTSVDPVDTATYYCARTVSSGYIYYAMDYWGQGTLVTVSS VL: DIQMTQSPSSLSASVGDRVTISCRASQDIRNYLNWYQQKPGKAPKLLIFYTSMKPRGVPSRFSGSGSGTDYTLTISSLQPEDIATYYCQQGLTPPLTFGGGTKVEIK
